Experimental data from patent publication US20240116951A1, “HETEROCYCLIC COMPOUNDS AND USES THEREOF” (Kumquat Biosciences Inc., priority 2022, published 2024).
Some of these results come from one statement about several compounds together. For at least one compound, name, drawing or mass did not settle the structure.

These molecules were tested on Kras mutant G12S and/or G12C (assay: Covalent modification of KRAS protein by intact-protein LC-MS). Conditions: within 24 hours, room temperature.
Assay type: biochemical

| SMILES | ability to crosslink Kras mutant G12S and/or G12C (% KRAS protein modification) |
| --- | --- |
| C#Cc1c(F)ccc2cc(O)cc(-c3ncc4c(N5CCC6(CCN6C(=O)n6cncn6)C5)nc(OC[C@@]56CCCN5C[C@H](F)C6)nc4c3F)c12 (stereo partly drawn) [Compound 270, (6-(7-(8-ethynyl-7-fluoro-3-hydroxynaphthalen-1-yl)-8-fluoro-2-(((2R,7aS)-2-fluorotetrahydro-1H-pyrrolizin-7a(5H)-yl)methoxy)pyrido[4,3-d]pyrimidin-4-yl)-1,6-diazaspiro[3.4]octan-1-yl)(1H-1,2,4-triazol-1-yl)methanone] | greater than 0% |
| N#Cc1c(N)sc2c(F)ccc(-c3c(Cl)cc4c(N5CCC6(C5)N(C(=O)n5cncn5)CC6(F)F)nc(OC[C@@]56CCCN5C[C@H](F)C6)nc4c3F)c12 (stereo partly drawn) [Compound 283, 2-amino-4-(6-chloro-4-(3,3-difluoro-1-(1H-1,2,4-triazole-1-carbonyl)-1,6-diazaspiro[3.4]octan-6-yl)-8-fluoro-2-(((2R,7aS)-2-fluorotetrahydro-1H-pyrrolizin-7a(5H)-yl)methoxy)quinazolin-7-yl)-7-fluorobenzo[b]thiophene-3-carbonitrile] | greater than 0% |
| N#Cc1c(N)sc2c(F)ccc(-c3c(Cl)cc4c(N5CCC6(CCCN6C(=O)n6cncn6)C5)nc(OC[C@@]56CCCN5C[C@H](F)C6)nc4c3F)c12 (stereo partly drawn) [Compound 261, 4-(4-(1-(1H-1,2,4-triazole-1-carbonyl)-1,7-diazaspiro[4.4]nonan-7-yl)-6-chloro-8-fluoro-2-(((2R,7aS)-2-fluorotetrahydro-1H-pyrrolizin-7a(5H)-yl)methoxy)quinazolin-7-yl)-2-amino-7-fluorobenzo[b]thiophene-3-carbonitrile] | greater than 0% |
| N#Cc1c(N)sc2c(F)ccc(-c3c(F)c4nc(OC[C@@]56CCCN5C[C@H](F)C6)nc(N5CCC6(CCN6C(=O)n6cncn6)C5)c4c(=O)n3C3CC3)c12 (stereo partly drawn) [Compound 267, 4-(4-(1-(1H-1,2,4-triazole-1-carbonyl)-1,6-diazaspiro[3.4]octan-6-yl)-6-cyclopropyl-8-fluoro-2-(((2R,7aS)-2-fluorotetrahydro-1H-pyrrolizin-7a(5H)-yl)methoxy)-5-oxo-5,6-dihydropyrido[4,3-d]pyrimidin-7-yl)-2-amino-7-fluorobenzo[b]thiophene-3-carbonitrile] | greater than 0% |
| N#Cc1c(N)sc2c(F)ccc(-c3c(Cl)cc4c(N5CCC6(CCN6C(=O)OC(C(F)(F)F)C(F)(F)F)C5)nc(OC[C@@]56CCCN5C[C@H](F)C6)nc4c3F)c12 (stereo partly drawn) [Compound 237, 1,1,1,3,3,3-hexafluoropropan-2-yl 6-(7-(2-amino-3-cyano-7-fluorobenzo[b]thiophen-4-yl)-6-chloro-8-fluoro-2-(((2R,7aS)-2-fluorotetrahydro-1H-pyrrolizin-7a(5H)-yl)methoxy)quinazolin-4-yl)-1,6-diazaspiro[3.4]octane-1-carboxylate] | greater than 0% |
| N#Cc1c(N)sc2c(F)ccc(-c3c(Cl)cc4c(N5CCC6(CCN6C(=O)C(F)Cl)C5)nc(OC[C@@]56CCCN5C[C@H](F)C6)nc4c3F)c12 (stereo partly drawn) [Compound 244, 2-amino-4-(6-chloro-4-(1-(2-chloro-2-fluoroacetyl)-1,6-diazaspiro[3.4]octan-6-yl)-8-fluoro-2-(((2R,7aS)-2-fluorotetrahydro-1H-pyrrolizin-7a(5H)-yl)methoxy)quinazolin-7-yl)-7-fluorobenzo[b]thiophene-3-carbonitrile] | greater than 0% |
| Nc1nc2c(-c3c(Cl)cc4c(N5CC6(CCN6C(=O)n6cncn6)C5)nc(OC[C@@]56CCCN5C[C@H](F)C6)nc4c3F)ccc(F)c2s1 [Compound 273, (6-(7-(2-amino-7-fluorobenzo[d]thiazol-4-yl)-6-chloro-8-fluoro-2-(((2R,7aS)-2-fluorotetrahydro-1H-pyrrolizin-7a(5H)-yl)methoxy)quinazolin-4-yl)-1,6-diazaspiro[3.3]heptan-1-yl)(1H-1,2,4-triazol-1-yl)methanone] | greater than 0% |
| N#Cc1c(N)sc2c(F)ccc(-c3c(Cl)cc4c(N5CCCCC6(CCCN6C(=O)n6cncn6)C5)nc(OC[C@@]56CCCN5C[C@H](F)C6)nc4c3F)c12 (mixture of isomers) [Compound 231, 4-(4-(1-(1H-1,2,4-triazole-1-carbonyl)-1,7-diazaspiro[4.6]undecan-7-yl)-6-chloro-8-fluoro-2-(((2R,7aS)-2-fluorotetrahydro-1H-pyrrolizin-7a(5H)-yl)methoxy)quinazolin-7-yl)-2-amino-7-fluorobenzo[b]thiophene-3-carbonitrile] | greater than 0% |
| Nc1nc2c(-c3c(F)c4nc(OC[C@@]56CCCN5C[C@H](F)C6)nc(N5CCC6(CCN6C(=O)n6cncn6)C5)c4c(=O)n3C3CC3)ccc(F)c2s1 (stereo partly drawn) [Compound 257, 4-(1-(1H-1,2,4-triazole-1-carbonyl)-1,6-diazaspiro[3.4]octan-6-yl)-7-(2-amino-7-fluorobenzo[d]thiazol-4-yl)-6-cyclopropyl-8-fluoro-2-(((2R,7aS)-2-fluorotetrahydro-1H-pyrrolizin-7a(5H)-yl)methoxy)pyrido[4,3-d]pyrimidin-5(6H)-one] | greater than 0% |
| CN(C)C1CN(c2nc(N3CCC4(CCN4C(=O)n4cncn4)C3)c3cc(Cl)c(-c4ccc(F)c5sc(N)c(C#N)c45)c(F)c3n2)C1 (centres unmarked) [Compound 203, 4-(4-(1-(1H-1,2,4-triazole-1-carbonyl)-1,6-diazaspiro[3.4]octan-6-yl)-6-chloro-2-(3-(dimethylamino)azetidin-1-yl)-8-fluoroquinazolin-7-yl)-2-amino-7-fluorobenzo[b]thiophene-3-carbonitrile] | greater than 0% |
| C[C@H](Oc1nc(N2CCC3(CCCN3C(=O)n3cncn3)C2)c2cc(Cl)c(-c3ccc(F)c4sc(N)c(C#N)c34)c(F)c2n1)[C@@H]1CCCN1C (stereo partly drawn) [Compound 241, 4-(4-(1-(1H-1,2,4-triazole-1-carbonyl)-1,7-diazaspiro[4.4]nonan-7-yl)-6-chloro-8-fluoro-2-((S)-1-((S)-1-methylpyrrolidin-2-yl)ethoxy)quinazolin-7-yl)-2-amino-7-fluorobenzo[b]thiophene-3-carbonitrile] | greater than 0% |
